Assay results: article PMC2193228
These are yes or no findings as the source states them, for the method shown. Binding seen in cells or lysates may run through a third protein. Some results given as binding are weak or reduced against the parent protein; the word gives no strength. For part of these data: Where a sequence is shown, tags or fusion partners need not be part of it.

Sequences of proteins named here, by UniProt entry; tags and fusion partners are left off.
UniProt Q9Y812: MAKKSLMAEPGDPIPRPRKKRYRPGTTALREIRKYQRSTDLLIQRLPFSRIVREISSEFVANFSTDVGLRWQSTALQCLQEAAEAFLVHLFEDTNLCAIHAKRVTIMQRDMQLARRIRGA

Tests used:
[1] = biological target: Sim3 (S. pombe (endogenous in S. pombe)) (UniProt Q9USQ4); test: co-IP; S. pombe cell extracts; IP with sheep anti-GFP or rabbit anti-Sim3, western with rabbit anti-Sim3 or rabbit anti-GFP
[2] = biological target: Sim3-143-GFP (S. pombe) (UniProt Q9USQ4); test: co-IP; S. pombe cell extracts; IP with sheep anti-GFP or mouse anti-myc (9E10), western with rabbit anti-GFP or rabbit anti-myc; cells grown at 25°C or 36°C (6 hr)
[3] = biological target: Sim3-GFP (S. pombe) (UniProt Q9USQ4); test: as above

binding [1] | binding [2] | binding [3] | Substance
binds |  |  | GFP-CENP-A^Cnp1 (from UniProt Q9Y812 1-120)
 | binds | binds | myc-CENP-A^Cnp1 (from UniProt Q9Y812 1-120)
